Among all 360,000 compounds or so, about 7,500 (2.1%) were called active. The inconclusive results got no clear call from the source; some entries with a clear call stand among them for comparison. Calls come from the whole dose curve; as a rule, active = well fitted inhibition curve with a large enough effect; inconclusive = small, poorly fitted or top-dose-only effect, or effect the other way; inactive = flat fitted curve, though single readings scatter. A potency beside an inconclusive call is a rough fit, not a confirmed value.
assay: Nrf2 qHTS screen for inhibitors; settings: A549 ARE-Fluc reporter, luciferase luminescence, 18-24 h; activity change, negative = inhibition: at 46 µM (top of the series); note: nearly all actives have a fitted effect of over 60% in size
Outline: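 Concentration-response testing used A549 ARE_Fluc cells at 5000 cells/well. Following an 18-24 h compound incubation, viability was read by fluorescence (Ex 405/Em 525) and luciferase output by luminescence.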
% is set by controls: 0 for no effect and ±100 for the full control effect; potency is the fitted concentration of half-maximal effect.

| Compound | Potency | activity change, negative = inhibition |
| --- | --- | --- |
| COc1ccc(C(=O)Oc2c(OC)cc(C(=S)N3CCOCC3)cc2OC)cc1OC | inconclusive: 25.9 µM [falling, single point] |  |
| COc1ccc(N2CCN(C(=O)CNC(=O)c3ccc(Br)o3)CC2)cc1 | inconclusive: 5.8 µM [falling, full curve, poor fit] |  |
| Cc1cccc(C(C)C)c1NC(=O)c1ccc(COc2ccc3c(C)cc(=O)oc3c2)cc1 | inconclusive: 8.2 µM [falling, partial curve] |  |
| COc1ccc(NC(=O)c2cc(-c3ccc(OC)c(OC)c3)nc3ccccc23)c(OC)c1 | inconclusive: 11.6 µM [activator, single point] |  |
| Cc1cc(-c2n[nH]c(=S)n2/N=C/C(Cl)=C/c2ccccc2)n[nH]1 | inactive |  |
| COc1ccc(C)cc1NS(=O)(=O)c1cc(Br)cc2c1N(C(C)=O)C(C)C2 (configuration not stated) |  | inactive: -3.77% [at 9.27 µM] |
| Cc1c(C(=O)N(Cc2cccc(Cl)c2)Cc2ccco2)oc2ccccc12 | inconclusive: 29.1 µM [falling, single point] |  |
| COc1ccc(N2CCN(C(=O)CNC(=O)Cn3cnc4sc(C)c(C)c4c3=O)CC2)cc1 | inactive |  |
| C=CCNC(=O)COc1ccc(Br)cc1Cl | inconclusive: 29.1 µM [activator, single point] |  |
| COc1ccccc1NC(=O)CS(=O)(=O)c1cccc2nsnc12 | inconclusive: 29.1 µM [activator, partial curve, poor fit] |  |
| Cn1c(=O)[nH]c2nnc(-c3ccc(Cl)c(Cl)c3)nc2c1=O | inconclusive: 0.58 µM [activator, full curve, poor fit] |  |
| O=C(NCC(=O)N1CCN(c2ccccc2)CC1)c1ccccc1 | inconclusive: 13 µM [activator, partial curve, poor fit] |  |
| O=C(CSc1nnc(-c2cccs2)n1-c1cccc(Cl)c1)c1cccc2c1OCCO2 | inconclusive: 23.1 µM [falling, single point] |  |
| O=C(Cn1cc(SCc2ccc(Cl)cc2)c2ccccc21)N1CCCC1 | inactive |  |
| Cc1nc2ncnn2c(C)c1Cc1c(Cl)cccc1Cl | inconclusive: 1.64 µM [falling, full curve, poor fit] |  |
| O=c1oc2ccccc2c(Nc2cc3ccccc3cc2O)c1[N+](=O)[O-] | inconclusive: 29.1 µM [activator, single point] |  |
| CN(CC(=O)Nc1ccccc1C(F)(F)F)C(=O)c1ccc(-c2ccc(Cl)cc2)o1 | inactive |  |
| Cc1ccc(NS(=O)(=O)c2ccc3c(c2)C(Cl)(Cl)C(=O)N3)cc1C | inactive |  |
| CC(=O)Oc1ccccc1C(=O)N(C1CCCCC1)C1CCCCC1 | inconclusive: 18.4 µM [falling, single point] |  |
| Cc1cc2nc3c(nc2cc1C)C1(C(=O)O)CCC3(C)C1(C)C (configuration not stated) | inconclusive: 9.2 µM [activator, partial curve, poor fit] |  |
| O=C(O)CSc1nc2sc3c(c2c(=O)n1Cc1ccccc1)CCCCC3 | inconclusive: 18.4 µM [activator, single point] |  |
| CCCOC(c1ccccc1)(c1ccccc1)C(Oc1nc(C)cc(C)n1)C(=O)O (configuration not stated) | inconclusive: 32.6 µM [falling, single point] |  |
| COc1ccc(C2CCCN2C(=S)Nc2ccc(C)c(C)c2)cc1OC (configuration not stated) | inactive |  |

Among those listed so far, these have nitrogen in an aromatic ring.

| Compound | Potency | activity change, negative = inhibition |
| --- | --- | --- |
| COc1ccc(NC(=O)c2cc(-c3ccc(OC)c(OC)c3)nc3ccccc23)c(OC)c1 | inconclusive: 11.6 µM [activator, single point] |  |
| Cc1cc(-c2n[nH]c(=S)n2/N=C/C(Cl)=C/c2ccccc2)n[nH]1 | inactive |  |
| COc1ccc(N2CCN(C(=O)CNC(=O)Cn3cnc4sc(C)c(C)c4c3=O)CC2)cc1 | inactive |  |
| COc1ccccc1NC(=O)CS(=O)(=O)c1cccc2nsnc12 | inconclusive: 29.1 µM [activator, partial curve, poor fit] |  |
| Cn1c(=O)[nH]c2nnc(-c3ccc(Cl)c(Cl)c3)nc2c1=O | inconclusive: 0.58 µM [activator, full curve, poor fit] |  |
| O=C(CSc1nnc(-c2cccs2)n1-c1cccc(Cl)c1)c1cccc2c1OCCO2 | inconclusive: 23.1 µM [falling, single point] |  |
| O=C(Cn1cc(SCc2ccc(Cl)cc2)c2ccccc21)N1CCCC1 | inactive |  |
| Cc1nc2ncnn2c(C)c1Cc1c(Cl)cccc1Cl | inconclusive: 1.64 µM [falling, full curve, poor fit] |  |
| Cc1cc2nc3c(nc2cc1C)C1(C(=O)O)CCC3(C)C1(C)C (configuration not stated) | inconclusive: 9.2 µM [activator, partial curve, poor fit] |  |
| O=C(O)CSc1nc2sc3c(c2c(=O)n1Cc1ccccc1)CCCCC3 | inconclusive: 18.4 µM [activator, single point] |  |
| CCCOC(c1ccccc1)(c1ccccc1)C(Oc1nc(C)cc(C)n1)C(=O)O (configuration not stated) | inconclusive: 32.6 µM [falling, single point] |  |

3 structures from above, ordered by number of heavy atoms, largest number first:

| Compound | Potency | activity change, negative = inhibition |
| --- | --- | --- |
| Cc1cccc(C(C)C)c1NC(=O)c1ccc(COc2ccc3c(C)cc(=O)oc3c2)cc1 | inconclusive: 8.2 µM [falling, partial curve] |  |
| Cc1c(C(=O)N(Cc2cccc(Cl)c2)Cc2ccco2)oc2ccccc12 | inconclusive: 29.1 µM [falling, single point] |  |
| O=C(NCC(=O)N1CCN(c2ccccc2)CC1)c1ccccc1 | inconclusive: 13 µM [activator, partial curve, poor fit] |  |

The listing continues:

| Compound | Potency | activity change, negative = inhibition |
| --- | --- | --- |
| CCN(Cc1ccccc1)C(=O)c1cccc(S(=O)(=O)N2CCN(c3ccccc3)CC2)c1 | inconclusive: 23.1 µM [falling, single point] |  |
| Nc1c(-c2ccccc2)c(CSc2nc3ccccc3[nH]2)nn1-c1cccc(Cl)c1 | active: 23.1 µM |  |
| Cc1cc(C)n2nnnc2c1C#N | inconclusive: 25.9 µM [activator, partial curve, poor fit] |  |
| Cc1cccc(-n2ncc(C(=O)NCc3ccc4c(c3)OCO4)c2C2CCN(C(=O)OC(C)(C)C)CC2)c1 | active: 16.4 µM |  |
| O=C(NC(Nc1nc2ccc([N+](=O)[O-])cc2s1)(C(F)(F)F)C(F)(F)F)c1ccccc1 | active: 2.59 µM |  |
| COc1ccc(CN2CCN(C(=O)c3cccs3)CC2)cc1 | inconclusive: 13 µM [falling, partial curve] |  |
| C=CCN(c1ccccc1OC)S(=O)(=O)c1cccc(C(=O)OC2CCOC2=O)c1 (configuration not stated) | inactive |  |
| Cc1cccc(-c2noc(CN(C(=O)c3c(-c4ccccc4Cl)noc3C)C(C)C)n2)c1 | inconclusive: 29.1 µM [falling, single point] |  |
| COCCn1c(=NC(=O)c2sc3ccccc3c2Cl)sc2cc(S(N)(=O)=O)ccc21 | inactive |  |
| CC(=O)Oc1ccc(C#C/C=C2\c3ccccc3C(=O)N2c2ccccc2)cc1 | inconclusive: 25.9 µM [falling, single point] |  |
| COc1ccc(CCNC(=O)c2cccn2C)cc1 | inconclusive: 2.06 µM [activator, partial curve, poor fit] |  |
| CC(C)C(CCNC1CCN(C)CC1)c1ccc(Cl)cc1 (configuration not stated) | inactive |  |
| COc1cccc(-c2nc3n(n2)C(c2ccccc2Cl)C(C(N)=O)=C(C)N3)c1 (configuration not stated) | inconclusive: 29.1 µM [falling, single point] |  |
| N#CC1=C(N)N(c2ccccc2)C(c2ccccc2)C1(C#N)C#N (configuration not stated) | inconclusive: 23.1 µM [falling, single point] |  |
| O=C(Nc1ccccc1F)c1ccc(CN2CCN(c3ccccc3)CC2)cc1 | inconclusive: 20.6 µM [falling, single point] |  |
| O=C(CSCc1ccc(F)cc1)NCc1ccc(F)cc1 | inconclusive: 0.259 µM [falling, full curve, poor fit] |  |
| O=C(NCc1ccncc1)c1ccc(OCc2ccccc2)cc1 | inconclusive: 23.1 µM [falling, partial curve, poor fit] |  |
| CCCCNC(=O)CC1N=C2c3ccccc3N=C(SCC(=O)Nc3ccccc3OC)N2C1=O (configuration not stated) | active: 18.4 µM |  |
| CC(=O)N(c1ccccc1)c1nnc(-c2cnc(C)cn2)s1 | inconclusive: 9.2 µM [activator, partial curve] |  |
| CCN(CC(=O)NCc1ccc(Cl)cc1)C(=O)c1c(C)noc1C | inconclusive: 0.0731 µM [falling, partial curve, poor fit] |  |
| CCc1ccccc1NC(=O)Nc1ccc2snnc2c1 | inactive |  |
| O=C(O)c1ccc(N/N=C/c2c(F)cccc2Cl)cc1 | inconclusive: 1.03 µM [activator, partial curve] |  |
| Cc1cc(N2CCCC2=O)cc(C)c1S(=O)(=O)NCCOc1ccc(C(C)(C)C)cc1 | inconclusive: 29.1 µM [falling, single point] |  |

| Compound | Potency | activity change, negative = inhibition |
| --- | --- | --- |
| O=C(CNC(=O)c1cccc(Br)c1)N/N=C/c1cc(Br)cc(Br)c1O | inconclusive: 29.1 µM [falling, single point] |  |
| COCC(=O)N(C)[C@H]1C[C@H]2c3cc(-c4ccccc4)ccc3CCN2C(=O)[C@H]1[C@H](C)O | inactive |  |
| O=C(C1CCN(S(=O)(=O)c2cccc3cccnc23)CC1)N1CCn2c1nc1ccccc12 | inconclusive: 4.61 µM [falling, partial curve] |  |
| CCCCn1nc(C(=O)Nc2ccccc2N2CCCC2)c2ccccc2c1=O | inconclusive: 16.4 µM [falling, partial curve, poor fit] |  |
| O=C(NCc1ccco1)c1cc(S(=O)(=O)N2CCOCC2)c(Cl)cc1Cl | active: 18.4 µM |  |
| Cc1ccc(-c2nc3scc(CCNS(=O)(=O)c4ccc(Oc5ccccc5)cc4)n3n2)cc1 | inconclusive: 9.2 µM [falling, partial curve, poor fit] |  |
| COc1ccc(N2C(=O)CC(Sc3nnnn3-c3ccc(F)cc3)C2=O)cc1 (configuration not stated) | inconclusive: 32.6 µM [falling, single point] |  |
| COCCNC(=S)N1CCCN(c2nc3cc(C)ccc3cc2C#N)CC1 | inconclusive: 7.31 µM [falling, partial curve, poor fit] |  |
| Cc1ccc(NC(=O)C2CCCN(C(=O)c3ccc(Cl)cc3)C2)cc1S(=O)(=O)N1CCOCC1 (configuration not stated) | active: 7.31 µM |  |
| O=C(NCc1ccc2[nH]c3c(c2c1)CCCC3)c1ccc(S(=O)(=O)N2CCCCC2)cc1 | inconclusive: 5.8 µM [falling, full curve] |  |
| O=C(Nc1ccc(S(=O)(=O)N2CCCCCC2)cc1)c1c(F)cccc1F | inactive |  |
| CCOc1cc(/C=C(\C#N)C(=O)Nc2ccc(OC)cc2)ccc1OCc1cc(=O)n2nc(CC)sc2n1 | inconclusive: 0.517 µM [activator, full curve, poor fit] |  |
| COC(=O)c1c(S(=O)(=O)NCc2ccccc2)sc(C(=O)O)c1C | inconclusive: 0.411 µM [falling, partial curve] |  |
| CCCCN(C)CCNC(=O)c1cc(-c2ccc(Cl)s2)nc2ccccc12 |  | inactive: 6.35% [at 9.27 µM] |
| CC(C)(C)OC(=O)N1CCC(c2c(C(=O)NCCN3CCOCC3)cnn2-c2ccc(F)cc2F)CC1 | inconclusive: 23.1 µM [activator, single point] |  |
| O=C(NCc1ccccc1)C1=C[C@@H](C2CCCCC2)C[C@@H](OCCCCO)O1 | inactive |  |
| CC(C)c1cc(N=O)cc(C(C)C)c1O | inactive |  |
| CCOC(=O)Nc1sc2c(c1C(=O)OCC)CCC2 | inactive |  |
| Cc1cc(NC(=O)CCC(=O)N(CC(=O)NCC2CCCO2)c2ccc(C(C)C)cc2)no1 (configuration not stated) | inconclusive: 0.517 µM [falling, partial curve] |  |
| Cc1cccc(/C(N)=N/OC(=O)N2c3ccccc3Sc3ccccc32)c1 | inconclusive: 16.4 µM [falling, partial curve, poor fit] |  |
| O=C(CC(=O)c1cccs1)c1ccncc1 | inconclusive: 9.2 µM [activator, partial curve] |  |

— PubChem BioAssay AID504444 (National Center for Advancing Translational Sciences (NCATS), 2011)
